Laboratory results: PubChem BioAssay AID1159584 (Peter MacCallum Cancer Centre, 2016)

Assay: 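Genes that CDH1-null MCF10A cells selectively depend on to survive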 (primary screen)
Cell system: human MCF10A breast epithelial cells, parental and CDH1-null
Reagents: siRNA against human genes
Read-out: 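Cell viability by CellTiter-Glo ATP luminescence, each line scaled to the mean of mock wells across plates, then CDH1-null over parental ratio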
Scale: CDH1-null / parental viability ratio: higher = CDH1-null cells survive relatively better than parental
The deposit covers about 18,000 reagents; this is a random part of them. Not all columns of the deposit are shown. Not stated in the record: the amount of reagent, the time to read-out.

{"gene": "ACSF2", "CDH1-null / parental viability ratio": 0.96}
{"gene": "CAPNS1", "CDH1-null / parental viability ratio": 1.23}
{"gene": "EPCIP", "CDH1-null / parental viability ratio": 1.19}
{"gene": "PALS2", "CDH1-null / parental viability ratio": 0.88}
{"gene": "CDT1", "CDH1-null / parental viability ratio": 1}
{"gene": "MYCBP2", "CDH1-null / parental viability ratio": 1}
{"gene": "WDR26", "CDH1-null / parental viability ratio": 1.1}
{"gene": "FBXL6", "CDH1-null / parental viability ratio": 0.83}
{"gene": "VPS72", "CDH1-null / parental viability ratio": 0.86}
{"gene": "KDM2A", "CDH1-null / parental viability ratio": 1.03}
{"gene": "RSPO2", "CDH1-null / parental viability ratio": 0.77}
{"gene": "REEP3", "CDH1-null / parental viability ratio": 1.11}
{"gene": "PPP1R27", "CDH1-null / parental viability ratio": 0.97}
{"gene": "HOXB13", "CDH1-null / parental viability ratio": 1.07}
{"gene": "WFDC12", "CDH1-null / parental viability ratio": 1.26}
{"gene": "PPP1R14B", "CDH1-null / parental viability ratio": 1.38}
{"gene": "ANKRD29", "CDH1-null / parental viability ratio": 1.1}
{"gene": "ZNF137P", "CDH1-null / parental viability ratio": 0.88}
{"gene": "CSTL1", "CDH1-null / parental viability ratio": 1.14}
{"gene": "HAX1", "CDH1-null / parental viability ratio": 0.88}
{"gene": "ZNF229", "CDH1-null / parental viability ratio": 1.67}
{"gene": "POLQ", "CDH1-null / parental viability ratio": 1.03}
{"gene": "EVA1A", "CDH1-null / parental viability ratio": 0.8}
{"gene": "CORIN", "CDH1-null / parental viability ratio": 1.07}
{"gene": "TANK", "CDH1-null / parental viability ratio": 0.98}
{"gene": "GLB1L", "CDH1-null / parental viability ratio": 1.04}
{"gene": "MAGEA10", "CDH1-null / parental viability ratio": 1.21}
{"gene": "CAV3", "CDH1-null / parental viability ratio": 0.9}
{"gene": "NFE4", "CDH1-null / parental viability ratio": 1.08}
{"gene": "GPC6", "CDH1-null / parental viability ratio": 1}
{"gene": "IL37", "CDH1-null / parental viability ratio": 1.01}
{"gene": "ZNF593", "CDH1-null / parental viability ratio": 1.17}
{"gene": "DCTN5", "CDH1-null / parental viability ratio": 0.64}
{"gene": "CKMT1A", "CDH1-null / parental viability ratio": 1.53}
{"gene": "TRIM25", "CDH1-null / parental viability ratio": 0.92}

Records listed so far whose target name begins with T or t (2):
{"gene": "TANK", "CDH1-null / parental viability ratio": 0.98}
{"gene": "TRIM25", "CDH1-null / parental viability ratio": 0.92}
